Assay results taken from paper doi:10.1101/2025.07.09.663887.
These are yes or no findings as the source states them, for the method shown. In cells and extracts the contact can be indirect. Some results given as binding are weak or reduced against the parent protein; the word gives no strength. Blank lines part the entries; values can stand above or below the substance they belong to.

The chains behind the UniProt entries cited, without tags or fusion partners.
UniProt Q00987: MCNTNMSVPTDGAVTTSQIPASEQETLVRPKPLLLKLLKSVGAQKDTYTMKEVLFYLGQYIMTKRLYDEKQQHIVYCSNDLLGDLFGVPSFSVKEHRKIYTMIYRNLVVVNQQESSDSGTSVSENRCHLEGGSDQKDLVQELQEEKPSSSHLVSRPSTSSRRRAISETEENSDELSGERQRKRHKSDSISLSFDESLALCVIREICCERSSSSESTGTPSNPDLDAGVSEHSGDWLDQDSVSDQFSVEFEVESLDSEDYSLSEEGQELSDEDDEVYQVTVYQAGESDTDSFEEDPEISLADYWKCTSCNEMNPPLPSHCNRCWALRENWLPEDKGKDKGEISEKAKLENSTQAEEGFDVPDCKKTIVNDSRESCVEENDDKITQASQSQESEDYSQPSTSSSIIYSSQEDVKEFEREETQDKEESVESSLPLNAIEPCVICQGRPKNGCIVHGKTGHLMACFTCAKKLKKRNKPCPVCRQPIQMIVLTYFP
UniProt Q9NZJ0: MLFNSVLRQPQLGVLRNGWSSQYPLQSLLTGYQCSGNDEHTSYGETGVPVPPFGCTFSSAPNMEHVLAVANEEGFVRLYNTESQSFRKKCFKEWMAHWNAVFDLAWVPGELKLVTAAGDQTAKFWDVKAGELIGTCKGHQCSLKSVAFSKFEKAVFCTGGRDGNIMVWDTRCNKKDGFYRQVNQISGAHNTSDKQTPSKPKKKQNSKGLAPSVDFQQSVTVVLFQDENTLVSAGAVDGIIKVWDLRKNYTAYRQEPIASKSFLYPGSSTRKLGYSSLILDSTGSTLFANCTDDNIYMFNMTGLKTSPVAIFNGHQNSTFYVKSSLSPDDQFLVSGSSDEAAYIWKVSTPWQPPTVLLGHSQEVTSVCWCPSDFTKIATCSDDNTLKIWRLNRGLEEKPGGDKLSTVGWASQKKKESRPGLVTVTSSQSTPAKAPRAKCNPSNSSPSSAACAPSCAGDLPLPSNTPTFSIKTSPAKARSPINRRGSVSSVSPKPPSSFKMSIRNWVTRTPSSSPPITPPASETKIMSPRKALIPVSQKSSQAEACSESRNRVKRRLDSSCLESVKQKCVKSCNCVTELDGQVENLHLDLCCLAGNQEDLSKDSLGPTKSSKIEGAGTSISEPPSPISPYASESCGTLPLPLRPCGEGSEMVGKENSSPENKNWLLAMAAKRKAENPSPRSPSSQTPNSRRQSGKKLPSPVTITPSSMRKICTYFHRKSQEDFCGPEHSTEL

Columns and labels:
Test in all cases: co-IP
[1] = target: Mdm2 (endogenous) (human (endogenous in U2OS)) (UniProt Q00987)
myc-Mdm2 = myc-Mdm2 (UniProt Q00987)
Flag-Cdt2 = Flag-Cdt2 (UniProt Q9NZJ0)

binding [1]: binds
Substance: Cdt2 (endogenous) (from UniProt Q9NZJ0 1-730)

binding (myc-Mdm2): binds
Substance: Flag-Cdt2 (from UniProt Q9NZJ0 1-730)

binding (Flag-Cdt2): binds
Substance: myc-Mdm2 (from UniProt Q00987 1-491)
